{"source": "PubChem BioAssay AID493014", "about": "(National Center for Advancing Translational Sciences (NCATS), 2011)", "note": "Hit rate of the full screen: of about 340,000 compounds, about 170 (0.05%) were called active. Inconclusive means that the source gave no clear call. Such entries were picked first, then a sample of the others. Calls follow the shape of the dose curve; as a rule, active = well fitted inhibition curve with a large enough effect in the signal ratio, with a control signal flat (not every such curve was filed as active); inconclusive = small, poorly fitted or top-dose-only effect, or effect the other way, or a change in a side signal; inactive = flat fitted curve, though single readings scatter; the % refers to the signal ratio. Potencies beside an inconclusive call are fits to weak or partial responses and may not hold up. Potency is read from the fitted curve at half-maximal effect."}
{"assay": "qHTS Assay to Find Inhibitors of Chronic Active B-Cell Receptor Signaling;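 as to activity change, negative = inhibition: plate controls were basal doxycycline-induced cells for no effect and cells given 10 µM MG132 for full effect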", "conditions": "ABC-DLBCL IkBa-CBG/CBR reporter, luminescence ratio (green luciferase fused to IkBa over red control in TMD8 lymphoma cells), 4 h; activity change, negative = inhibition: at 46.1 µM (top of the series)", "method_in_brief": "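TMD8 ABC-DLBCL cells carrying doxycycline-inducible green luciferase fused to IkappaBalpha plus unfused red luciferase were exposed to compounds (up to 46 uM) for 4 hrs at 37C. Activity came from the overlap-corrected green/red luminescence ratio.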"}
{"smiles": "COc1cc(C2N(Cc3ccccc3)CCN2Cc2ccccc2)ccc1OC(C)=O", "Potency": "inconclusive: 12.6 µM [falling, partial curve, poor fit]"}
{"smiles": "COc1ccccc1OCC(=O)NCCSCc1ccccc1Cl", "activity change, negative = inhibition": "inactive: 5.43%"}
{"smiles": "O=c1cc(O)c2sc(Nc3ccc(Cl)c(F)c3)nc2[nH]1", "activity change, negative = inhibition": "inactive: 7.13%"}
{"smiles": "Cc1ccc(OCc2cc(C(=O)NCC(C)(C)N3CCOCC3)no2)cc1C", "activity change, negative = inhibition": "inactive: -2.53%"}
{"smiles": "CCOc1ccc(CN2CCN(Cc3cc4ccccc4o3)CC2CCO)cc1", "note": "(stereo unspecified)", "Potency": "inconclusive: 14.1 µM [falling, single point]"}
{"smiles": "O=C(c1ccc(C(F)(F)F)cc1)C1CCCN(C(=O)Cn2cnnn2)C1", "note": "(stereo unspecified)", "activity change, negative = inhibition": "inconclusive: -4.08%"}
{"smiles": "COc1ccc(/C=N/NC(=O)c2nc(-c3ccccc3)cc(-c3ccccc3)n2)cc1O", "activity change, negative = inhibition": "inconclusive: 3.55%"}
{"smiles": "O=c1c2c3nc4ccccc4nc3n(/N=C/c3ccncc3)c2ncn1-c1ccccc1", "activity change, negative = inhibition": "inconclusive: -0.544%"}
{"smiles": "COc1ccc2c(c1)c(C(=O)CN1CCc3ccccc3C1)c(C)n2C", "Potency": "inconclusive: 28.2 µM [falling, single point]"}
{"smiles": "Cc1nc2ccc(NC(=S)N3CCCC3)cc2nc1C", "Potency": "inconclusive: 12.6 µM [rising, single point]"}
{"smiles": "CC1CN(S(=O)(=O)c2cccc(C(=O)OC(C)C(=O)NC3CCCCC3C)c2)CC(C)O1", "note": "(stereo unspecified)", "activity change, negative = inhibition": "inconclusive: 1.53%"}
{"smiles": "Cc1ccc(/C=N/Nc2ncc(Cl)cc2Cl)s1", "activity change, negative = inhibition": "inactive: -8.97%"}
{"smiles": "Cc1ccc(S(=O)(=O)N2CCOCC2)cc1C(=O)OC(C)C(=O)c1ccccc1", "note": "(stereo unspecified)", "activity change, negative = inhibition": "inactive: -6.94%"}
{"smiles": "C=CCn1c(SCC(=O)Nc2ccccc2OC)nc2c([nH]c3ccccc32)c1=O", "activity change, negative = inhibition": "inconclusive: -5.86%"}
{"smiles": "CSc1sc(C(=O)N(C)C)c2c1S(=O)(=O)N(C)c1ccccc1-2", "activity change, negative = inhibition": "inactive: 27.2%"}
{"smiles": "O=C(O)c1ccc2c(c1)C(=O)N(c1ccc(Nc3ccccc3)cc1)C2=O", "activity change, negative = inhibition": "inconclusive: -18.5%"}
{"smiles": "CC(=O)Nc1ccc(/C=C2\\Sc3ccccc3C2=O)cc1", "activity change, negative = inhibition": "inactive: -2.04%"}
{"smiles": "COC(=O)c1oc2ccccc2c1NC(=O)c1ccccc1O", "activity change, negative = inhibition": "inconclusive: 12.5%"}
{"smiles": "N#CC(C#N)=Cc1cccn1-c1ccc(S(N)(=O)=O)cc1", "activity change, negative = inhibition": "inconclusive: -48.9%"}
{"smiles": "O=C(Cc1c(F)cccc1Cl)Nc1ncc([N+](=O)[O-])s1", "activity change, negative = inhibition": "inconclusive: 6.26%"}
{"smiles": "CCc1ccc(N(C)S(=O)(=O)c2ccc3[nH]cc(C(=O)NCCN4CCOCC4)c(=O)c3c2)cc1", "Potency": "inconclusive: 29.1 µM [rising, partial curve, poor fit]"}
{"smiles": "COc1ccc(CC(=O)Nc2nc3ccc(F)cc3s2)cc1S(=O)(=O)N1CCOCC1", "activity change, negative = inhibition": "inconclusive: 2.81%"}
{"smiles": "CCOC(=O)Cn1c(=NC(=O)c2ccc([N+](=O)[O-])s2)sc2ccccc21", "activity change, negative = inhibition": "inactive: 2.23%"}
{"smiles": "COc1ccccc1-c1nnc(SCC(=O)Nc2ccccc2)o1", "activity change, negative = inhibition": "inconclusive: -8.1%"}
{"smiles": "COC(=O)CN1C(=O)N/C(=C/c2ccc(OC)c(C)c2OC)C1=O", "activity change, negative = inhibition": "inconclusive: 3.47%"}
{"smiles": "CC(=O)N(Cc1ccccc1)Cc1nc2sc(C)c(C)c2c(=O)[nH]1", "activity change, negative = inhibition": "inconclusive: 7.25%"}
{"smiles": "COc1ccc(NC(=O)CO/N=C/C(=O)Nc2ccccc2C)c([N+](=O)[O-])c1", "activity change, negative = inhibition": "inconclusive: -9.71%"}
{"smiles": "O=C1OC(=O)C2C1[C@@H]1CC[C@H]2O1", "note": "(stereo partly specified)", "activity change, negative = inhibition": "inconclusive: 4.96%"}
{"smiles": "CC(C)c1nc2sc3c(SCC(=O)NCc4ccco4)ncnc3c2c2c1CCC2", "activity change, negative = inhibition": "inactive: 3.14%"}
{"smiles": "CC(C)(C)c1ccc(N=C2SCC(=O)N2Cc2cccs2)cc1", "activity change, negative = inhibition": "inconclusive: 21.3%"}
{"smiles": "Cc1cc(Cl)c2ccccc2n1", "activity change, negative = inhibition": "inactive: -0.0222%"}
{"smiles": "NNC(=O)c1oc2ccccc2c1-n1cccc1", "Potency": "inconclusive: 3.16 µM [falling, full curve, poor fit]"}
{"smiles": "O=C1C=C(Nc2ccc(F)cc2)c2ccccc2C1=O", "activity change, negative = inhibition": "inconclusive: 2.12%"}
{"smiles": "C=CCn1c(C)nnc1SCC(=O)Nc1nccs1", "activity change, negative = inhibition": "inactive: 0.294%"}
{"smiles": "Cc1cc(/C=C2\\C(=N)N3N=CSC3=NC2=O)c(C)n1Cc1ccccc1", "activity change, negative = inhibition": "inactive: 1.11%"}
{"smiles": "CCCCNC(=O)c1ccccc1NC(=O)CCSc1ccccc1", "Potency": "inconclusive: 18.4 µM [falling, single point]"}
{"smiles": "Cc1ccc(N2CCN(S(=O)(=O)c3ccc(F)c(C)c3)CC2)c(C)c1", "activity change, negative = inhibition": "inconclusive: 10.6%"}
{"smiles": "CC(=O)Nc1ccc(NC(=O)COC(=O)[C@@H]2CCCN2C(=O)c2cccs2)cc1", "activity change, negative = inhibition": "inconclusive: -0.469%"}
{"smiles": "Cc1cc(C)nc(SCc2ccc(C(=O)N/N=C/c3cccnc3)cc2)n1", "activity change, negative = inhibition": "inconclusive: -27.7%"}
{"smiles": "CN(C)S(=O)(=O)c1ccc(C(=O)Nc2nnc(-c3ccco3)o2)cc1", "activity change, negative = inhibition": "inconclusive: 10.5%"}
{"smiles": "CCc1cc(Cn2nc(C(=O)O)cc2-c2ccccc2)on1", "activity change, negative = inhibition": "inconclusive: 0.849%"}
{"smiles": "COc1cc(NC(=S)N2CCN(C(c3ccccc3)c3ccccc3)CC2)cc(OC)c1", "activity change, negative = inhibition": "inconclusive: -0.985%"}
{"smiles": "Cc1cccc(C)c1-n1cccc1/C=C1/C(=N)N2C(=NC1=O)SN=C2S(C)(=O)=O", "Potency": "inconclusive: 11.2 µM [rising, partial curve]"}
{"smiles": "COc1ccc(C)cc1N(C(=O)c1snc(C(N)=O)c1N)C(C(=O)NC1CCCC1)c1ccc(F)cc1", "note": "(stereo unspecified)", "activity change, negative = inhibition": "inconclusive: -9.52%"}
{"smiles": "O=C(c1cc(-c2ccco2)on1)N1CCCc2ccccc21", "activity change, negative = inhibition": "inconclusive: 2.11%"}
{"smiles": "O=c1cc(-c2ccccc2)nc2nc(-c3ccccc3)[nH]n12", "Potency": "inconclusive: 20.6 µM [falling, partial curve]"}
{"smiles": "CN(C)C(=O)COC(=O)c1ccccc1Nc1ccc(SC(F)F)cc1", "Potency": "inconclusive: 23.1 µM [falling, partial curve]"}
{"smiles": "O=C(c1ccc2c(c1)OCO2)N1CCNc2ccccc2C1", "activity change, negative = inhibition": "inconclusive: 0.582%"}
{"smiles": "COC(=O)c1c(NC(=O)C(C)(C)C)sc2c1C(C(=O)OC)CC2", "note": "(stereo unspecified)", "activity change, negative = inhibition": "inconclusive: 339%"}
{"smiles": "CC(C)S(=O)(=O)c1csc(C(=O)NN)c1Cl", "activity change, negative = inhibition": "inactive: -13%"}
{"smiles": "CC(C)(C)OC(=O)NCc1ccc(NC(=O)c2nc[nH]c2C(=O)NCCNC(=O)c2[nH]cnc2C(=O)Nc2ccc(CNC(=O)OC(C)(C)C)cc2)cc1", "activity change, negative = inhibition": "inactive: 3.71%"}
{"smiles": "CNC(=O)/C(C#N)=C/c1c(N(Cc2ccccc2)Cc2ccccc2)nc2c(C)cccn2c1=O", "activity change, negative = inhibition": "inconclusive: -4.98%"}
{"smiles": "COc1ccc(CN2CCC(C)CC2)cc1OCc1ccccc1", "activity change, negative = inhibition": "inactive: -0.642%"}
{"smiles": "COc1cc(/C=N/NC(=O)CCn2c3ccccc3c3ccccc32)cc(OC)c1OC", "activity change, negative = inhibition": "inconclusive: -2.86%"}
{"smiles": "CCOc1ccc(/C=C2/Sc3ccc(C(=O)N4CCOCC4)cc3N(C)C2=O)cc1OC", "Potency": "inconclusive: 15.8 µM [falling, single point]"}
{"smiles": "COc1ccc(N2C(=O)[C@@H]3[C@H](C2=O)[C@H]2C=CC=NN2[C@@H]3C(=O)Nc2ccc(Cl)cc2)cc1", "Potency": "inconclusive: 17.8 µM [falling, partial curve]"}
{"smiles": "Cc1cccc(NC(=O)c2ccccc2Br)n1", "Potency": "inconclusive: 29.1 µM [rising, single point]"}
{"smiles": "Cn1cc(CN2CCN(Cc3ccccc3)CC2)c(-c2cccc(Cl)c2)n1", "activity change, negative = inhibition": "inactive: 7.79%"}
{"smiles": "Cc1ccccc1NS(=O)(=O)c1ccc(C2CNC(=O)C2)cc1", "note": "(stereo unspecified)", "activity change, negative = inhibition": "inconclusive: 2.91%"}
{"smiles": "CCCc1cnc2c(c1SCC(=O)Nc1ccc(C)c(Cl)c1)c(=O)n(C)c(=O)n2C", "activity change, negative = inhibition": "inactive: -0.27%"}
{"smiles": "O=C(NC(Cc1ccccc1)C(=O)O)C1CCCCC1", "note": "(stereo unspecified)", "activity change, negative = inhibition": "inconclusive: -0.581%"}
{"smiles": "COc1ccc(-c2noc(CN(C)C(=O)c3ccoc3C)n2)cc1", "activity change, negative = inhibition": "inactive: 5.98%"}
{"smiles": "CC(C)CC(=O)Nc1sc2c(c1C(=O)O)CCCCC2", "Potency": "inconclusive: 25.1 µM [falling, single point]"}
{"smiles": "CCOC(=O)N1CCC(NCCNC(=O)c2cccs2)CC1", "activity change, negative = inhibition": "inconclusive: 10.8%"}
{"smiles": "CCOc1ccccc1NC(=O)c1ccc(F)c(S(=O)(=O)NCc2ccc3c(c2)OCO3)c1", "activity change, negative = inhibition": "inconclusive: -2.49%"}
{"smiles": "CN(C)c1ccc(Sc2nnc(NC(=O)Nc3ccc(Cl)cc3Cl)s2)cc1", "activity change, negative = inhibition": "inconclusive: 10.7%"}
{"smiles": "ClCC1CN(Cc2ccccc2Cl)CCO1", "note": "(stereo unspecified)", "activity change, negative = inhibition": "inactive: 0.637%"}
{"smiles": "Cc1ccc(S(=O)(=O)N2CCN(C(=O)CC(C)n3cncn3)CC2)cc1C", "note": "(stereo unspecified)", "Potency": "inconclusive: 4.47 µM [falling, single point]"}
{"smiles": "CSc1nsc(SCCN2C(=O)c3ccccc3C2=O)n1", "activity change, negative = inhibition": "inconclusive: 7.44%"}
{"smiles": "Nc1c(C(=O)NCc2ccco2)c2nc3ccccc3nc2n1CCc1ccc(F)cc1", "Potency": "inconclusive: 5.17 µM [rising, partial curve, poor fit]"}
{"smiles": "COCCCNC(=O)c1cc(OC)c(OC)c(OC)c1", "Potency": "inconclusive: 29.1 µM [falling, single point]"}
{"smiles": "COc1ccccc1N1CCN(CC(=O)c2ccc3ccn(C(C)=O)c3c2)CC1", "Potency": "inconclusive: 3.26 µM [rising, full curve]"}
{"smiles": "COc1cccc(C(=O)Nc2ccccc2OC(F)(F)F)c1", "activity change, negative = inhibition": "inconclusive: 4.84%"}
{"smiles": "CC1=NNC(=O)C1C(c1ccccc1)C1C(=O)NN=C1C", "note": "(stereo unspecified)", "Potency": "inconclusive: 22.4 µM [cytotoxic, single point]"}
{"smiles": "O=c1sc2ccccc2c(N2CCOCC2)c1[N+](=O)[O-]", "activity change, negative = inhibition": "inactive: 0.841%"}
{"smiles": "Cc1cc(=O)[nH]c(SCC(=O)Nc2cccc3ccccc23)c1C#N", "Potency": "inconclusive: 23.1 µM [falling, single point]"}
{"smiles": "CCCOc1ccc(C(=O)Nc2ccc(S(=O)(=O)N3C[C@@H]4C[C@@H](C3)c3cccc(=O)n3C4)cc2)cc1", "activity change, negative = inhibition": "inconclusive: 2.23%"}
{"smiles": "C=CCn1c2ccccc2c2nnc(SCCN3CCOCC3)nc21", "Potency": "inconclusive: 28.2 µM [falling, partial curve, poor fit]"}
{"smiles": "COc1ccc(C)cc1NC(=O)CN1CCN(S(=O)(=O)c2ccc(F)cc2)CC1", "activity change, negative = inhibition": "inconclusive: 18%"}
{"smiles": "Cc1ccc(N2CC(C(=O)N3CCN(Cc4ccc5c(c4)OCO5)CC3)CC2=O)cc1", "note": "(stereo unspecified)", "activity change, negative = inhibition": "inactive: 6.44%"}
{"smiles": "CCOC(=O)c1ccc(Nc2ccc([N+](=O)[O-])cn2)cc1", "activity change, negative = inhibition": "inconclusive: 2.39%"}
